Source: the supplement of paper PMC12067093, “Discovery and optimisation of a covalent ligand for TRIM25 and its application to targeted protein ubiquitination” (Chemical Science, 2025)
Some of the results follow.

Amino acid sequences for entries named in this document (tags omitted). A change or cut given only in a name is not applied to a line headed by its entry.
UniProt O14578, whole entry, looked up: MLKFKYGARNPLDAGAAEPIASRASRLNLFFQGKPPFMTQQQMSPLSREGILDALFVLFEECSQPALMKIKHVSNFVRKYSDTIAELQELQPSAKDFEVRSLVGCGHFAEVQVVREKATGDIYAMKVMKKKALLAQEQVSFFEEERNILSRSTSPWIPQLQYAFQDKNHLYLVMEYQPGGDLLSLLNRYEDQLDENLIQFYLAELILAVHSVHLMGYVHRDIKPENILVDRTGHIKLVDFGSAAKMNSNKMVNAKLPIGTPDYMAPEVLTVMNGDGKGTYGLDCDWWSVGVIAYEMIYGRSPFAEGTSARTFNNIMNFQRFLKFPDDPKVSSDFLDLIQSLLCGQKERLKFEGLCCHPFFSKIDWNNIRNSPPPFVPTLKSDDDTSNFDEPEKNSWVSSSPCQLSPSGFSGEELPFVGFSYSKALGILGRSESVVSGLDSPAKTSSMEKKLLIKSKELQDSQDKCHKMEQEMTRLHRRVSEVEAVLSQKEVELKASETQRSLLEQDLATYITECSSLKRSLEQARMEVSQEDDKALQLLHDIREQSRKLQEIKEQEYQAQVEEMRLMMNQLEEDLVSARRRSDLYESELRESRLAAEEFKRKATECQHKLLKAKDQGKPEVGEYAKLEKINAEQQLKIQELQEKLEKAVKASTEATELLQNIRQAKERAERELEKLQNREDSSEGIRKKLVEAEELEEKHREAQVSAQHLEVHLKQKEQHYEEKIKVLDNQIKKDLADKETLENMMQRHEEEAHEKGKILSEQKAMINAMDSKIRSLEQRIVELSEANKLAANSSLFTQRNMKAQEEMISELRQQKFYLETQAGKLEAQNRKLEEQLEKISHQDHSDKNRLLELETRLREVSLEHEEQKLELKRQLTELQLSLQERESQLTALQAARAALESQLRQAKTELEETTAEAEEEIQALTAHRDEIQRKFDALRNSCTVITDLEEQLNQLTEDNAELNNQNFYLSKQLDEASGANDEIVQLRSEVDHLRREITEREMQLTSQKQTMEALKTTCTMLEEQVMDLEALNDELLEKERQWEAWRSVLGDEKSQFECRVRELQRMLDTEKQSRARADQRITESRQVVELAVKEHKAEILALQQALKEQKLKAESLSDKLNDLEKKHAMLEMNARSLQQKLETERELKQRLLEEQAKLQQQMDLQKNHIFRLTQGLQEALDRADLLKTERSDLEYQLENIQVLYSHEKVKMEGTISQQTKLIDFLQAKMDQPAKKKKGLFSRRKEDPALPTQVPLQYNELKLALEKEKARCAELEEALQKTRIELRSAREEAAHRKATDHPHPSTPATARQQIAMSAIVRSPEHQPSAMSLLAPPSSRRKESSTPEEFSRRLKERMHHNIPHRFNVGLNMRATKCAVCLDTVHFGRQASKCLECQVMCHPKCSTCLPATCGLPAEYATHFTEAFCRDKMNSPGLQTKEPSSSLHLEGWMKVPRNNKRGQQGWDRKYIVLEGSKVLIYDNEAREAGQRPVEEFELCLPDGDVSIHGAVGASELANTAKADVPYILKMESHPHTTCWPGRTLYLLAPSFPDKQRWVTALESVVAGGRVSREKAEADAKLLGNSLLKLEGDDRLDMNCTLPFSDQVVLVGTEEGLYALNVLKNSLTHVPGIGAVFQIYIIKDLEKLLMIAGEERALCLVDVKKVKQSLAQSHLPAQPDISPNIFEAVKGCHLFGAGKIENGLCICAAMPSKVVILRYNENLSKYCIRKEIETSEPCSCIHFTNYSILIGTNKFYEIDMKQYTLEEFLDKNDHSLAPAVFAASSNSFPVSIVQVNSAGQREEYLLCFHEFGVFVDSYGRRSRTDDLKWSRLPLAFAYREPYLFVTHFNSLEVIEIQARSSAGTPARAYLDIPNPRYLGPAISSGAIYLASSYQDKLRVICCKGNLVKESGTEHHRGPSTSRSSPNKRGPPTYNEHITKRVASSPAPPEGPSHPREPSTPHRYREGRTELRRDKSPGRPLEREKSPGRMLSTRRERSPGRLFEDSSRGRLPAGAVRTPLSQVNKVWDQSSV
UniProt Q9BSY4: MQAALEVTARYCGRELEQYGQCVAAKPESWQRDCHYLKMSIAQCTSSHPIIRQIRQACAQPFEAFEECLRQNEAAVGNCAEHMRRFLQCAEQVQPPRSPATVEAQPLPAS
UniProt Q96S66: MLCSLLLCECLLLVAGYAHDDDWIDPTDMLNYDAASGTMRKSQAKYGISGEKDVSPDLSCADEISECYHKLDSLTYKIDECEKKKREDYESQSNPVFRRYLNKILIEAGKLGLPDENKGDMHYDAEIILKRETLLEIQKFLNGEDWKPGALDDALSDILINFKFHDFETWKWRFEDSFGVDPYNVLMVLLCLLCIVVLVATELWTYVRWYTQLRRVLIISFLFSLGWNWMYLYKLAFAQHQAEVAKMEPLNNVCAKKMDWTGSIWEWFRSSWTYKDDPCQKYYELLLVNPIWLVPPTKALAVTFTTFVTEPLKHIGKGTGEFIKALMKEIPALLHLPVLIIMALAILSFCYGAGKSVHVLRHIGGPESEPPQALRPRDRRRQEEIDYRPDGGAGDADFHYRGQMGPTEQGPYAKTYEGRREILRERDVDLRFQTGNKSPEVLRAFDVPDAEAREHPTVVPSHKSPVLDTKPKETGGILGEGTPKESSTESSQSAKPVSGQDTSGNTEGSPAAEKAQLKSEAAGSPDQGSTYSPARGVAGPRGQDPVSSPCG
UniProt P26374: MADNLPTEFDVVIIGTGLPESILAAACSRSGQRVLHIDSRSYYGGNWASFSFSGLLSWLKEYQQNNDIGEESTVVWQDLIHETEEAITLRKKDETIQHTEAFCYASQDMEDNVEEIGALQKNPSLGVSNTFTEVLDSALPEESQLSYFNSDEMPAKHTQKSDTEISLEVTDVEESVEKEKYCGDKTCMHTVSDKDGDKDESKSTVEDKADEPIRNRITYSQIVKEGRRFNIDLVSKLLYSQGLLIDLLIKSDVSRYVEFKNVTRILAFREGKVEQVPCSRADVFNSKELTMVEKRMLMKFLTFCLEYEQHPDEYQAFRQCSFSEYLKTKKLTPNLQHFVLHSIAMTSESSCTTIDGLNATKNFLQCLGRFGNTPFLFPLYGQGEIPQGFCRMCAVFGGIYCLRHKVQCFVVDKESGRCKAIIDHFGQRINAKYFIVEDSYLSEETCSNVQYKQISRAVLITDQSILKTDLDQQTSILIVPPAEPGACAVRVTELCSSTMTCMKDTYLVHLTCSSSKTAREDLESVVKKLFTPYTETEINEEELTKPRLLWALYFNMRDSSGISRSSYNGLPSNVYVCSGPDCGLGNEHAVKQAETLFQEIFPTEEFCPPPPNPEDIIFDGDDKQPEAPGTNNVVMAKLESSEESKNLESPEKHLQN
UniProt Q6FI81: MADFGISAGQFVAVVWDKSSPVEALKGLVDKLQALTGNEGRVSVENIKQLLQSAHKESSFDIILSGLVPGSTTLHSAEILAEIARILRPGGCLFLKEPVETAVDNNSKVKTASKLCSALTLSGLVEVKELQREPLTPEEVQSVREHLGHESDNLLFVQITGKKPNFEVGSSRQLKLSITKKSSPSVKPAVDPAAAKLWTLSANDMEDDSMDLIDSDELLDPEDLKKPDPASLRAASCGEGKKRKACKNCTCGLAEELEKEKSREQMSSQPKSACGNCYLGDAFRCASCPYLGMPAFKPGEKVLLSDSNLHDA
UniProt Q8WWK9: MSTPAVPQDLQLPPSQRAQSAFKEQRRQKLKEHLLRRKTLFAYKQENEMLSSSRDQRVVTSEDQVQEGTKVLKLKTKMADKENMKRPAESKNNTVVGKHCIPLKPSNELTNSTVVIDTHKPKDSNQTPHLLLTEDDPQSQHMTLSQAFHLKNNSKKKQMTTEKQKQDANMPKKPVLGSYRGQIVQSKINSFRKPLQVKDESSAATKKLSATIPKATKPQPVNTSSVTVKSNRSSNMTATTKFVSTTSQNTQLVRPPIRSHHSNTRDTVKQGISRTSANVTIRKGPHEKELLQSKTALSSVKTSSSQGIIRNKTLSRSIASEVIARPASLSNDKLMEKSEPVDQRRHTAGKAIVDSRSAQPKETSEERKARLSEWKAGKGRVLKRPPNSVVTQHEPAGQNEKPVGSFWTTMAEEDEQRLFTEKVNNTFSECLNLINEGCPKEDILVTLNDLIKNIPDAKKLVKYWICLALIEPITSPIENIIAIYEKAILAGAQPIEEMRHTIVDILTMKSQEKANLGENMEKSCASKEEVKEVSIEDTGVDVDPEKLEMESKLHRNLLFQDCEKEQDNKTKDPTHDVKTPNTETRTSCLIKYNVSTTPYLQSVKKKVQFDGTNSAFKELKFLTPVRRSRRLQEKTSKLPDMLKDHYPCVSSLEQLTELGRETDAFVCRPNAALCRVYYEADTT
UniProt Q9UHD1: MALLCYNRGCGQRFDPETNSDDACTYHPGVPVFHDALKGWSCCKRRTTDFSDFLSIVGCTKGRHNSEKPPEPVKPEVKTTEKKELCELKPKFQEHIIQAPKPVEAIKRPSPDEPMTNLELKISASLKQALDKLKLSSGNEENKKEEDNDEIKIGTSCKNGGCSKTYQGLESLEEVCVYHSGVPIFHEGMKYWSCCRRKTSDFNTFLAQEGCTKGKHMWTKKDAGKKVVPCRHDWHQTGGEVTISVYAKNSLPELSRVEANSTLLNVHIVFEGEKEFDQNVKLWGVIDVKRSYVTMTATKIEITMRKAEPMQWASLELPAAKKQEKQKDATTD
UniProt Q9UFW8: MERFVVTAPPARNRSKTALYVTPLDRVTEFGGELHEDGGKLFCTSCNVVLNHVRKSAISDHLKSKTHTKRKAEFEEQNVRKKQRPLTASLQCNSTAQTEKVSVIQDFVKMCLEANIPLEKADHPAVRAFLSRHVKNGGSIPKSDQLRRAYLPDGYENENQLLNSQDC
UniProt Q7Z460: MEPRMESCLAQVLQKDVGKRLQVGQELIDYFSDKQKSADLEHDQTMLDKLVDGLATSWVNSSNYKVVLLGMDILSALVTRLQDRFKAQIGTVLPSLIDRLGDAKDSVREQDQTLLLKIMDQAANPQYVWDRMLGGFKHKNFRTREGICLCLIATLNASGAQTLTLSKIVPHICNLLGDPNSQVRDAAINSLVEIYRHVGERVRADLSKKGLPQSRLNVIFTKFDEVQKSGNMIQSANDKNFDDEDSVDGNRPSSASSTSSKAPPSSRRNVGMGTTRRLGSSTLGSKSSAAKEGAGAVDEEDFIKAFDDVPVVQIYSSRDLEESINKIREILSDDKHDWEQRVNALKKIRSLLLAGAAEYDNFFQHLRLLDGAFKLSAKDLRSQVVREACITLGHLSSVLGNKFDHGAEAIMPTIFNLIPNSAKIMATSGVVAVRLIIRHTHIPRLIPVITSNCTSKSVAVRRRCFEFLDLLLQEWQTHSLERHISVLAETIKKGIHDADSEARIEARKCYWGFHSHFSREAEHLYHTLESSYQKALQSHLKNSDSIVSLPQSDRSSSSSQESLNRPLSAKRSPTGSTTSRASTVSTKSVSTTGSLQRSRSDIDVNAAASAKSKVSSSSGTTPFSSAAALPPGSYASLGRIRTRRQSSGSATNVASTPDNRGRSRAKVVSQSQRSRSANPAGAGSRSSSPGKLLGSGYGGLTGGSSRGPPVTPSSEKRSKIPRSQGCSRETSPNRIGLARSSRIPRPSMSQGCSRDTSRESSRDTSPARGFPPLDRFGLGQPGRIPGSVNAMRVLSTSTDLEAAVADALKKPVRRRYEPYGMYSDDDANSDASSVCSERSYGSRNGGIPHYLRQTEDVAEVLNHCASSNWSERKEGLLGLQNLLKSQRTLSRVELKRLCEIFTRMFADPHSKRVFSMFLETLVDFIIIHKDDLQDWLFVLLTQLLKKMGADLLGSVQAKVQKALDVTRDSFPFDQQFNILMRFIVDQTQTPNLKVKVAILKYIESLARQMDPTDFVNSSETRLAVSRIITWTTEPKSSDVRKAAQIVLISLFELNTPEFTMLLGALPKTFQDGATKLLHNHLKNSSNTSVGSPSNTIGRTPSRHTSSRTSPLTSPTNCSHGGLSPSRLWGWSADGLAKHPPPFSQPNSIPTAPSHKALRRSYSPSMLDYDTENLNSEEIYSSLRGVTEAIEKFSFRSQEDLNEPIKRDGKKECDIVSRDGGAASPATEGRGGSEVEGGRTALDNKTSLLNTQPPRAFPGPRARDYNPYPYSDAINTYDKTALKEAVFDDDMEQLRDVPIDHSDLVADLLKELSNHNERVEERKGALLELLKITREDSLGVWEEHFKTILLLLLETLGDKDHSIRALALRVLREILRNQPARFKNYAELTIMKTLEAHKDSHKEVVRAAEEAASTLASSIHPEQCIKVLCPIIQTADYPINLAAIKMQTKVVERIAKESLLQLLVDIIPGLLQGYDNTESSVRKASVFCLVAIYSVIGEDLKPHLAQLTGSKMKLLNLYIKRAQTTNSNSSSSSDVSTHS

Compound: Cc1cc(ccc1-c1ccccc1)C(=O)N1CCCN(CC1)C(=O)CCl [compound 10]
Assay: probe-labelled cysteine peptide fold change vs DMSO (competition) (log2 fold change); higher = less target engagement (more negative = stronger competition)
Conditions: THP-1, incubation time: 4 h
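Note: competitive profiling in live THP-1 cells: cysteine peptides tagged with an iodoacetamide desthiobiotin (IA-DTB) probe, intensity after compound treatment relative to DMSO-treated cells.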

Target	probe-labelled cysteine peptide fold change (10 µM)	probe-labelled cysteine peptide fold change (50 µM)
CIT_O14578_1688_GCHLFGAGK (UniProt O14578)	-0.0614	-0.119
CHCHD5_Q9BSY4_22_ELEQYGQCVAAKPESWQR (UniProt Q9BSY4)	-0.00679	0.264
CGAS_Q8N884_446_TAFFHVCTQNPQDSQWDRK (UniProt Q8N884)	-0.0481	0.066
CIP2A_Q8TCG1_472_VADSELCK (UniProt Q8TCG1)	0.274	-0.0813
CHAMP1_Q96JM3_16_LECDHCSFR (UniProt Q96JM3)	0.32	0.288
CLCC1_Q96S66_60+67_DVSPDLSCADEISECYHK (UniProt Q96S66)	-0.434	-0.129
CHML_P26374_390_FGNTPFLFPLYGQGEIPQGFCR (UniProt P26374)	0.0289	0.362
CIAPIN1_Q6FI81_92_ILRPGGCLFLK (UniProt Q6FI81)	-0.0886	-0.145
CLTC_Q00610_217_MEGNAEESTLFCFAVR (UniProt Q00610)	0.184	0.156
CHML_P26374_187_TCMHTVSDK (UniProt P26374)	-0.0578	0.0466
CHAF1B_Q13112_191_SYVQGVTWDPLGQYVATLSCDR (UniProt Q13112)	0.464	0.729
CLUH_O75153_333_IATPFQVYSWTAPQAEHAMDCVR (UniProt O75153)	-0.294	-0.854
CKAP2_Q8WWK9_674_ETDAFVCRPNAALCR (UniProt Q8WWK9)	-0.078	0.116
CKAP5_Q14008_1795_NESELEAHLCR (UniProt Q14008)	-0.122	0.228
CHORDC1_Q9UHD1_211_KTSDFNTFLAQEGCTK (UniProt Q9UHD1)	0.0992	-0.299
CLTC_Q00610_436_FQSVPAQPGQTSPLLQYFGILLDQGQLNKYESLELCRPVLQQGR (UniProt Q00610)	0.0469	-0.811
CIT_O14578_105_SLVGCGHFAEVQVVR (UniProt O14578)	0.00678	-0.0443
CLTC_Q00610_870_IHEGCEEPATHNALAK (UniProt Q00610)	-0.123	-0.147
CGGBP1_Q9UFW8_43_LFCTSCNVVLNHVR (UniProt Q9UFW8)	0.169	0.0816
CLASP1_Q7Z460_453_LIPVITSNCTSK (UniProt Q7Z460)	-0.108	0.0962
CLASP2_O75122_976_KDDGDSMCGGPGMSDPR (UniProt O75122)	-0.321	-0.453
CLIP2_Q9UDT6_272_YFQCPPK (UniProt Q9UDT6)	-0.000605	0.0735
CHKB_Q9Y259_85_CSLPDHLPSVGEEPR (UniProt Q9Y259)	0.146	0.245
CHD8_Q9HCK8_1913_LALCQPPGPELPK (UniProt Q9HCK8)	-0.261	-0.169
CIT_O14578_1272_CAELEEALQK (UniProt O14578)	0.183	0.105

2 entries drawn at random from the list so far:
Target	probe-labelled cysteine peptide fold change (10 µM)	probe-labelled cysteine peptide fold change (50 µM)
CLCC1_Q96S66_60+67_DVSPDLSCADEISECYHK (UniProt Q96S66)	-0.434	-0.129
CLASP1_Q7Z460_453_LIPVITSNCTSK (UniProt Q7Z460)	-0.108	0.0962
